The list shows a part of the results. Residues, ends and D or L forms follow the SMILES beside them. *: point of attachment. Cbz = O=C(OCc1ccccc1)*
Assays:
Assay in all cases: log2 fold change, soluble protein after heating vs DMSO (PISA); higher = thermal stabilisation; K562 cells, 10 uM, 30 min; active = over 0.2 and 3.5 SD of the protein, either way, in both replicates (recomputed)
erlotinib = compound: C#Cc1cccc(Nc2ncnc3cc(OCCOC)c(OCCOC)cc23)c1 [erlotinib]
Procedure, shortened: (§1)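 Thermal stability values are relative to control samples and come from duplicates. They are expressed as log2 fold changes. For measurement, K562 cells (2×10^6 cells/mL) received 10 μM compound for 30 min, and aliquots were heated for 3 min over 48°C-58°C, pooled, and extracted at 4°C in PBS with 0.5% NP-40. Soluble protein, the supernatant after 21,000xg for 90 min, was quantified by TMTpro 16plex LC-MS/MS with equalised channel sums.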

Protein sequences, listed by entry. Tags and fused reporters are not part of them. Lines headed by an entry give the natural chain unless they say otherwise; changes in a name come on top.
UniProt Q96DH6: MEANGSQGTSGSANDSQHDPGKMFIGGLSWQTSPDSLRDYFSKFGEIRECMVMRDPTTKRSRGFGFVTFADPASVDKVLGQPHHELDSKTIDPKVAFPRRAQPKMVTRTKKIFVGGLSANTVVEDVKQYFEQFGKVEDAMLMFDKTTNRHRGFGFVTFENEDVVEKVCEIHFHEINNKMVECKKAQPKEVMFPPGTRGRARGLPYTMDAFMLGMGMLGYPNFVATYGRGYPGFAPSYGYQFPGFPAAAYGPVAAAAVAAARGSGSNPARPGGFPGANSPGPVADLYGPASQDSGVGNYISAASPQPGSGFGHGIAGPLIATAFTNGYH
UniProt O75431: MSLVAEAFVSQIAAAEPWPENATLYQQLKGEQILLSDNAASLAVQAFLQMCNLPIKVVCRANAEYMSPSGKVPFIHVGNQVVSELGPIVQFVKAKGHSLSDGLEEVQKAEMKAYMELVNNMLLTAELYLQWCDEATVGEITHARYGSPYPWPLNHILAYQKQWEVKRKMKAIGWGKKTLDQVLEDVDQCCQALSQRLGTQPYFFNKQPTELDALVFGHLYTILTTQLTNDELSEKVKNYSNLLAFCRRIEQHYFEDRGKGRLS
UniProt Q96DR8: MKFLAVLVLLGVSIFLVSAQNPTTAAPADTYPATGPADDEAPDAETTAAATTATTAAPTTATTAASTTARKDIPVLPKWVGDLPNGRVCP
UniProt P03915, whole entry, looked up: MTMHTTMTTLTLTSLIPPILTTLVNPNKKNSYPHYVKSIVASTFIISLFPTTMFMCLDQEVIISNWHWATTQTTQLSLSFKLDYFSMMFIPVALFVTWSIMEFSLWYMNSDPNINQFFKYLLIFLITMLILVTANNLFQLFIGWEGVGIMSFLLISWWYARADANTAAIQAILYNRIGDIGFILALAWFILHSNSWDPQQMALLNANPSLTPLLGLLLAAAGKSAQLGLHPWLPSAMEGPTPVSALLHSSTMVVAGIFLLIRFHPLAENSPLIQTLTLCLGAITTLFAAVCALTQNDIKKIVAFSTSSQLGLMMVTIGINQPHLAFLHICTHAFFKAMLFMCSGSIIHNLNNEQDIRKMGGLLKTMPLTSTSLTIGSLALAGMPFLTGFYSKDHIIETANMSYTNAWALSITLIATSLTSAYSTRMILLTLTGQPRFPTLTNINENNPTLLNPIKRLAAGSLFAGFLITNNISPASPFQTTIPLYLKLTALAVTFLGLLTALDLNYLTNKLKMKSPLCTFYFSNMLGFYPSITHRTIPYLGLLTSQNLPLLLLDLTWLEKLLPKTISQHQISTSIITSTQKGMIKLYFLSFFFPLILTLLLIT
UniProt O00159, whole entry, looked up: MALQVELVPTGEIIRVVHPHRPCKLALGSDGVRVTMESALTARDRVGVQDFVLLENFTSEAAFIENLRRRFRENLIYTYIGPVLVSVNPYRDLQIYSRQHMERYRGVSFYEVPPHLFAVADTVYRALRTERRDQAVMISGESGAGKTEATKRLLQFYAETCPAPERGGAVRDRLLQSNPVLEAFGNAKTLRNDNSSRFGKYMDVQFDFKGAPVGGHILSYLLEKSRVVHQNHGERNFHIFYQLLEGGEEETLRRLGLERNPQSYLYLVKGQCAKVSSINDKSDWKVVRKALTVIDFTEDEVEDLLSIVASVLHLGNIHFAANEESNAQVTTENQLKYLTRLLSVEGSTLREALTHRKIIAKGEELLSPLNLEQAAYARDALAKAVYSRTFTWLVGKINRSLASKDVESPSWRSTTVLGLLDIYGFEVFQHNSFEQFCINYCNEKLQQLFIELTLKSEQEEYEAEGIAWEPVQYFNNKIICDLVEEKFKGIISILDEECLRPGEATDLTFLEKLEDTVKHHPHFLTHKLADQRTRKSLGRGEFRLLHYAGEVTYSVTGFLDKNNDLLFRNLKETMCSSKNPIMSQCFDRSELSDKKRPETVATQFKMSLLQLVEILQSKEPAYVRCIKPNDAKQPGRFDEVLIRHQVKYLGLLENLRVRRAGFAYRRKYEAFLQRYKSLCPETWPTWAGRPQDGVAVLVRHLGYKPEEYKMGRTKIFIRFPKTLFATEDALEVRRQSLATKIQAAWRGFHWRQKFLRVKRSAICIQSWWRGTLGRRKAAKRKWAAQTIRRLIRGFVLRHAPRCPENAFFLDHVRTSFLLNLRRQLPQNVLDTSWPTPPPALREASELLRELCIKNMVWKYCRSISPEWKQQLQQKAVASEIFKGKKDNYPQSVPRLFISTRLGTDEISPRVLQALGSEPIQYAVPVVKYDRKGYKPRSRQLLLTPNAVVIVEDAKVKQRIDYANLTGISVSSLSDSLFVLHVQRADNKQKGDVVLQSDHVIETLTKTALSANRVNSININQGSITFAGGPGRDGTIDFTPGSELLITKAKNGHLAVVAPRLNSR
UniProt Q9Y3D2: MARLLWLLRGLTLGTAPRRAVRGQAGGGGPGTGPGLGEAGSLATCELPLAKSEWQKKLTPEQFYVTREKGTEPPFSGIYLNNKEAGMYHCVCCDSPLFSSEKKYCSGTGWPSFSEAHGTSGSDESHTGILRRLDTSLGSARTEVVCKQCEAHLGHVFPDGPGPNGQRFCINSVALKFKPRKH
UniProt P82909: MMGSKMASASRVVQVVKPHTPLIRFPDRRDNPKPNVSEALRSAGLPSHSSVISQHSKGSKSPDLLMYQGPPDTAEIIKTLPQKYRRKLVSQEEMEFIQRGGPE
UniProt Q9UDX5: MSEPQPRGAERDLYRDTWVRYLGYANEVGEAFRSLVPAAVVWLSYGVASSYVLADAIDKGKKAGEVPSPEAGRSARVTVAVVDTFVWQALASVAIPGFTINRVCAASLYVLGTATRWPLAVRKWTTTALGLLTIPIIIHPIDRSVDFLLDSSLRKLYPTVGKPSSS
UniProt Q6UB35, whole entry, looked up: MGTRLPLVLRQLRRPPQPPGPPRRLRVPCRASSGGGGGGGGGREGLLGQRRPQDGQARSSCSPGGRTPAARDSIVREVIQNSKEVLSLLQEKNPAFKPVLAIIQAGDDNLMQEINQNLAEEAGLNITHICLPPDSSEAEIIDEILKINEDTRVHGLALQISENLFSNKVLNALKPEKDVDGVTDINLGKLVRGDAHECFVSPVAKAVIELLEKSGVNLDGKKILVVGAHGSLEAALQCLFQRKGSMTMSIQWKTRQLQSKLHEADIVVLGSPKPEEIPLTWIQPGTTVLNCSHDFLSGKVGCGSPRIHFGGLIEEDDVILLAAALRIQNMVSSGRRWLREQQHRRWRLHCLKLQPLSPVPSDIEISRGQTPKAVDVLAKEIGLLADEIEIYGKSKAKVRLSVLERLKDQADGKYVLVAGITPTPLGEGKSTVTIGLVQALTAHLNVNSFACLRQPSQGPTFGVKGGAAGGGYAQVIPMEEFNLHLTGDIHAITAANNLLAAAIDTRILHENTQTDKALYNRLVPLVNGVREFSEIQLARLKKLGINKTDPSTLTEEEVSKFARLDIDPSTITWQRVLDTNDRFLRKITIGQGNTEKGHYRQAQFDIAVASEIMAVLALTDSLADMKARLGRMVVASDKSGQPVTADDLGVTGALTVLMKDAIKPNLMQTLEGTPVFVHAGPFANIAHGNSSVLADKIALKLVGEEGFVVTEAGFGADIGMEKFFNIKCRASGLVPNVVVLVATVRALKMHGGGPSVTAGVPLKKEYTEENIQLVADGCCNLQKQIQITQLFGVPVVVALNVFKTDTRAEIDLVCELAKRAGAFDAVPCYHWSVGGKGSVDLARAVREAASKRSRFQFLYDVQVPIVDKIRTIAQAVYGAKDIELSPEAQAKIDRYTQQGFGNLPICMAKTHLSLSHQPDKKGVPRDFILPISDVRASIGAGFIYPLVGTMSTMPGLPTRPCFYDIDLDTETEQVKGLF
UniProt P58546, whole entry, looked up: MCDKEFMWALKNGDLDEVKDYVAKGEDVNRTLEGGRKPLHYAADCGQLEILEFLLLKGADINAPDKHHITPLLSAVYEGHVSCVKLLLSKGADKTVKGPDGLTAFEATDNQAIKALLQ
UniProt P60660, whole entry, looked up: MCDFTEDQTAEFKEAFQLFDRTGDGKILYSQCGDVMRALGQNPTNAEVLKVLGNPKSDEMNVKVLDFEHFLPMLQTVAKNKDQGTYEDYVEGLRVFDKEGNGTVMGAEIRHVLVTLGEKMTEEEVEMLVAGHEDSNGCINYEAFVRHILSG

[1] = compound: C/C(=N\NC(=O)C1=CC(=CC=C1)S(=O)(=O)N2CCOCC2)/C3=C(C=CC(=C3)Cl)O
Procedure, shortened: as §1

[2] = compound: C1=CC(=C(C=C1Cl)C2=NC3=NC=CN=C3C(=N2)NC4=CC=NC=C4)F
Procedure, shortened: as §1

[3] = compound: C1=CC(=CC=C1C2=NC3=C(N2)C=C(C=C3)C(=O)N)OC4=CC=C(C=C4)Cl
Procedure, shortened: as §1

[4] = compound: C1=CC2=C(C=CC(=C2)/C=C\3/C(=O)NC(=NCC4=CC=CS4)S3)N=C1
Procedure, shortened: as §1

[5] = compound: C1=CC2=NC=CN=C2C=C1/C=C/3\C(=O)NC(=O)S3
Procedure, shortened: as §1

[6] = compound: C1=CC=C(C=C1)C2=NC(=C(N2)C3=CC=NC=C3)C4=CC(=C(C=C4)Cl)O
Procedure, shortened: as §1

[7] = compound: C1=CC=C2C(=C1)C3=NNC4=CC=CC(=C43)C2=O
Procedure, shortened: as §1

[8] = compound: C1CCN(C1)C(=O)NC2=CC=CC(=C2)NC3=NC=C(C(=N3)NCCC4=CN=CN4)Br
Procedure, shortened: as §1

[9] = compound: C1CN(CCC1(CC2=CC=C(C=C2)Cl)N)C3=NC=NC4=C3C=CN4
Procedure, shortened: as §1

IRAK-1-4 Inhibitor I = compound: C1COCCN1CCN2C3=CC=CC=C3N=C2NC(=O)C4=CC(=CC=C4)[N+](=O)[O-] [IRAK-1-4 Inhibitor I]
Procedure, shortened: as §1

ibrutinib = compound: C=CC(=O)N1CCC[C@@H](n2nc(-c3ccc(Oc4ccccc4)cc3)c3c(N)ncnc32)C1 [ibrutinib]
Procedure, shortened: as §1

[10] = compound: CC(=O)c1cnc2ccc(-c3cc(Cl)c(O)c(Cl)c3)nc2c1N[C@H]1CC[C@H](CN(C)C)CC1
Procedure, shortened: as §1

ralimetinib = compound: CC(C)(C)Cn1c(N)nc2ccc(-c3[nH]c(C(C)(C)C)nc3-c3ccc(F)cc3)nc21 [ralimetinib]
Procedure, shortened: as §1

[11] = compound: CC(C)(O)CC(=O)NCCn1ccc2ncnc(Nc3ccc(Oc4cccc(C(F)(F)F)c4)c(Cl)c3)c21
Procedure, shortened: as §1

[12] = compound: CC(C)C1=C2N=C(C=C(N2N=C1)NCC3=CC=CC=C3)NCCCCCCN
Procedure, shortened: as §1

[13] = compound: CC(C)C[C@@H](C=O)NC(=O)[C@H](CC(C)C)NC(=O)[C@H](CC(C)C)NC(=O)OCc1ccccc1
Procedure, shortened: as §1

pinometostat = compound: CC(C)N(C[C@H]1O[C@@H](n2cnc3c(N)ncnc32)[C@H](O)[C@@H]1O)[C@H]1C[C@@H](CCc2nc3cc(C(C)(C)C)ccc3[nH]2)C1 [pinometostat]
Procedure, shortened: as §1

[14] = compound: CC1=C(C(CC(=O)N1)C2=CC=C(C=C2)C(F)(F)F)C(=O)NC3=C(C=C4C(=C3)C=NN4)F
Procedure, shortened: as §1

[15] = compound: CC1=C(C2=C(C=C1)C(=O)C3=CC=CC=C3N2CCCN)C
Procedure, shortened: as §1

Measured: log2 fold change

MSI2 (UniProt Q96DH6)
inactive: erlotinib -0.025 | [1] -0.057 | [2] -0.173 | [3] 0.106 | [4] 0.028 | [5] 0.034 | [6] -0.079 | [7] -0.066 | [8] 0.087 | [9] -0.034 | IRAK-1-4 Inhibitor I -0.1 | ibrutinib 0.103 | [10] -0.031 | ralimetinib 0.017 | [11] 0.03 | [12] -0.015 | [13] 0.132 | pinometostat 0.036 | [14] 0.018 | [15] -0.059

MTX2 (UniProt O75431)
inactive: erlotinib 0.029 | [1] 0.045 | [2] -0.004 | [3] 0.022 | [4] 0.052 | [5] -0.01 | [6] 0.178 | [7] -0.002 | [8] -0.023 | [9] 0.022 | IRAK-1-4 Inhibitor I 0.037 | ibrutinib 0.004 | [10] -0.01 | ralimetinib -0.077 | [11] -0.048 | [12] 0.01 | [13] 0.047 | pinometostat 0.01 | [14] -0.019 | [15] 0.056

MUCL1 (UniProt Q96DR8)
inactive: erlotinib 0.341 | [1] 0.113 | [2] -0.133 | [3] -0.258 | [4] 0.041 | [5] -0.087 | [6] 0.089 | [7] -0.369 | [8] -0.352 | [9] -0.567 | IRAK-1-4 Inhibitor I 0.131 | ibrutinib 0.272 | [10] 0.193 | ralimetinib -0.19 | [11] -0.068 | [12] 0.173 | [13] -0.153 | pinometostat -0.341 | [14] -0.915 | [15] 0.522

MRPL9 (UniProt Q9BYD2)
inactive: erlotinib -0.13 | [1] -0.151 | [2] -0.032 | [3] 0.021 | [4] 0.011 | [5] -0.044 | [6] 0.067 | [7] 0.116 | [8] -0.112 | [9] -0.163 | IRAK-1-4 Inhibitor I -0.156 | ibrutinib -0.044 | [10] 0.074 | ralimetinib 0.089 | [11] -0.007 | [12] 0.01 | [13] 0.071 | pinometostat 0.06 | [14] -0.03 | [15] -0.027

MT-ND5 (UniProt P03915)
inactive: erlotinib 0.04 | [1] -0.011 | [2] -0.019 | [3] 0.04 | [4] 0.016 | [5] 0.067 | [6] 0.011 | [7] -0.022 | [8] -0.026 | [9] 0.084 | IRAK-1-4 Inhibitor I 0.056 | ibrutinib 0.031 | [10] -0.006 | ralimetinib -0.042 | [11] -0.027 | [12] 0.032 | [13] -0.087 | pinometostat 0.024 | [14] -0.025 | [15] 0.111

MYO1C (UniProt O00159)
inactive: erlotinib 0.015 | [1] -0.02 | [2] -0.19 | [3] -0.047 | [4] 0.054 | [5] 0.041 | [6] -0.014 | [7] -0.049 | [8] 0.023 | [9] 0.072 | IRAK-1-4 Inhibitor I -0.384 | ibrutinib -0.239 | [10] -0.079 | ralimetinib 0.109 | [11] -0.253 | [12] -0.236 | [13] 0.07 | pinometostat 0.385 | [14] 0 | [15] 0.122

MRPS18A isoform 2 (UniProt Q9NVS2)
inactive: erlotinib -0.092 | [1] -0.196 | [2] -0.252 | [3] 0.043 | [4] -0.045 | [5] 0.008 | [6] -0.043 | [7] 0.097 | [8] -0.076 | [9] -0.199 | IRAK-1-4 Inhibitor I -0.066 | ibrutinib -0.021 | [10] 0.041 | ralimetinib 0.064 | [11] 0.024 | [12] -0.021 | [13] 0.02 | pinometostat 0.144 | [14] -0.051 | [15] -0.064

MSRB2 (UniProt Q9Y3D2)
inactive: erlotinib -0.06 | [1] -0.007 | [2] -0.044 | [3] 0.007 | [4] 0.01 | [5] -0.032 | [6] 0.063 | [7] -0.043 | [8] -0.178 | [9] 0.029 | IRAK-1-4 Inhibitor I 0.154 | ibrutinib -0.224 | [10] -0.254 | ralimetinib -0.01 | [11] -0.156 | [12] 0.095 | [13] -0.03 | pinometostat -0.115 | [14] -0.124 | [15] -0.121

MRPS36 (UniProt P82909)
inactive: erlotinib 0.064 | [1] -0.016 | [2] 0.038 | [3] -0.047 | [4] -0.067 | [5] 0.013 | [6] -0.006 | [7] -0.013 | [8] -0.052 | [9] -0.039 | IRAK-1-4 Inhibitor I 0.041 | ibrutinib -0.021 | [10] -0.026 | ralimetinib -0.064 | [11] 0.087 | [12] 0.086 | [13] 0.104 | pinometostat 0.009 | [14] 0.057 | [15] -0.055

MRPS18C (UniProt Q9Y3D5)
inactive: erlotinib -0.073 | [1] -0.041 | [2] -0.071 | [3] 0.269 | [4] -0.019 | [5] -0.139 | [6] 0.081 | [7] 0.128 | [8] 0.114 | [9] 0.172 | IRAK-1-4 Inhibitor I -0.05 | ibrutinib 0.017 | [10] 0 | ralimetinib -0.022 | [11] -0.001 | [12] -0.058 | [13] 0.114 | pinometostat -0.016 | [15] -0.247

MTFP1 (UniProt Q9UDX5)
inactive: erlotinib -0.05 | [1] -0.006 | [2] -0.002 | [3] 0.065 | [4] 0.107 | [5] 0.042 | [6] -0.058 | [7] -0.017 | [8] 0.029 | [9] 0.085 | IRAK-1-4 Inhibitor I 0.033 | ibrutinib 0.006 | [10] 0.04 | ralimetinib -0.056 | [11] 0.027 | [12] 0.098 | [13] 0.035 | pinometostat 0.02 | [14] -0.003 | [15] 0.014

Quoted at random: two records from the list.
MTFP1 (UniProt Q9UDX5)
inactive: erlotinib -0.05 | [1] -0.006 | [2] -0.002 | [3] 0.065 | [4] 0.107 | [5] 0.042 | [6] -0.058 | [7] -0.017 | [8] 0.029 | [9] 0.085 | IRAK-1-4 Inhibitor I 0.033 | ibrutinib 0.006 | [10] 0.04 | ralimetinib -0.056 | [11] 0.027 | [12] 0.098 | [13] 0.035 | pinometostat 0.02 | [14] -0.003 | [15] 0.014

MSRB2 (UniProt Q9Y3D2)
inactive: erlotinib -0.06 | [1] -0.007 | [2] -0.044 | [3] 0.007 | [4] 0.01 | [5] -0.032 | [6] 0.063 | [7] -0.043 | [8] -0.178 | [9] 0.029 | IRAK-1-4 Inhibitor I 0.154 | ibrutinib -0.224 | [10] -0.254 | ralimetinib -0.01 | [11] -0.156 | [12] 0.095 | [13] -0.03 | pinometostat -0.115 | [14] -0.124 | [15] -0.121

Following part

MUC1, A0A087WWM1
inactive: erlotinib 0.02 | [1] -0.003 | [2] -0.037 | [3] 0.002 | [4] -0.037 | [5] 0.006 | [6] 0.006 | [7] -0.064 | [8] -0.045 | [9] 0.006 | IRAK-1-4 Inhibitor I 0.136 | ibrutinib 0.039 | [10] -0.028 | ralimetinib -0.15 | [11] 0 | [12] 0.128 | [13] 0.046 | pinometostat -0.085 | [14] -0.038 | [15] -0.061

MTHFD1L (UniProt Q6UB35)
inactive: erlotinib -0.031 | [1] 0.031 | [2] 0.049 | [3] 0.013 | [4] 0.05 | [5] 0.016 | [6] 0.029 | [7] 0.053 | [8] 0.003 | [9] 0.043 | IRAK-1-4 Inhibitor I 0.024 | ibrutinib -0.019 | [10] -0.067 | ralimetinib -0.037 | [11] -0.039 | [12] -0.003 | [13] 0.003 | pinometostat -0.05 | [14] -0.01 | [15] 0.063

MTPN (UniProt P58546)
inactive: erlotinib -0.04 | [1] -0.012 | [2] 0.25 | [3] -0.028 | [4] 0.02 | [5] 0.088 | [6] 0.158 | [7] -0.037 | [8] -0.055 | [9] -0.104 | IRAK-1-4 Inhibitor I -0.004 | ibrutinib -0.069 | [10] 0.009 | ralimetinib -0.007 | [11] -0.058 | [12] 0.068 | [13] -0.011 | pinometostat -0.092 | [14] 0.01 | [15] 0.275

MRPS30 (UniProt Q9NP92)
inactive: erlotinib -0.253 | [1] -0.065 | [2] -0.036 | [3] 0.082 | [4] -0.066 | [5] 0.028 | [6] -0.024 | [7] 0.155 | [8] -0.038 | [9] -0.16 | IRAK-1-4 Inhibitor I -0.054 | ibrutinib 0.022 | [10] 0.087 | ralimetinib 0.083 | [11] 0.029 | [12] 0.046 | [13] -0.038 | pinometostat 0.167 | [14] 0.027 | [15] -0.078

MYL6 isoform 2 (UniProt P60660)
inactive: erlotinib -0.025 | [1] 0.016 | [2] 0.038 | [3] 0.035 | [4] 0.002 | [5] 0.041 | [6] 0.045 | [7] 0.029 | [8] -0.011 | [9] -0.107 | IRAK-1-4 Inhibitor I 0.023 | ibrutinib 0.013 | [10] 0.008 | ralimetinib -0.013 | [11] -0.021 | [12] -0.061 | [13] 0.002 | pinometostat -0.045 | [14] 0.018 | [15] -0.016
